The values below come from patent US20160251404A1 (Molecular Partners, published 2016).

Sequences of proteins named here, by UniProt entry; tags and fusion partners are left off. Residues count along the entry.
UniProt P14210, residues 32-728: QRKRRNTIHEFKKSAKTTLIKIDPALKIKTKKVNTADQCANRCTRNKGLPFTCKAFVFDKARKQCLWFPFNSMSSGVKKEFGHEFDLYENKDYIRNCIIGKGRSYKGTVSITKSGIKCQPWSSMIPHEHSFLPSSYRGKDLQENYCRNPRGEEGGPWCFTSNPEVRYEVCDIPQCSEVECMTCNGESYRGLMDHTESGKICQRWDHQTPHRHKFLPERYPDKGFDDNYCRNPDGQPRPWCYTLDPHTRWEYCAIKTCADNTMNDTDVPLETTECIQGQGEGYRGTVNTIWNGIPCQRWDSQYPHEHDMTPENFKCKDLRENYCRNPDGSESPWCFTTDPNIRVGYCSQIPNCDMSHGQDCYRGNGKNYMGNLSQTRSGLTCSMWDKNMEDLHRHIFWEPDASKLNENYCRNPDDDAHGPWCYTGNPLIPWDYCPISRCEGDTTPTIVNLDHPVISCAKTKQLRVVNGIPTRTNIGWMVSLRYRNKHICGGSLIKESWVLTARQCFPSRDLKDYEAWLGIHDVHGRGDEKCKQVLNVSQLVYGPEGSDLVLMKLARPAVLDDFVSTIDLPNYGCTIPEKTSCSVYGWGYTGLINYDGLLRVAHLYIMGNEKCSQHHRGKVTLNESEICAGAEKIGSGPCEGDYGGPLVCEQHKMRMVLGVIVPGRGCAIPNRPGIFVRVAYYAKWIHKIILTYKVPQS

The target in this experiment is recombinant human HGF (hepatocyte growth factor) (human) (UniProt P14210). Nature of the experiment: crude E. coli extract receptor competition ELISA (biotinylated HGF, c-Met-Fc on plate). Background: ELISA stands for enzyme-linked immunosorbent assay.

Results are given in words; binding and its absence hold for the method and conditions named. Some binding calls cover weakened binding; strength is not graded here.

B1: DARPin #61 (designed binder)
chain: MRGSHHHHHHGSDLGKKLLEAARAGQDDEVRILMANGADVNAEDYLGHTPLHLAASTGHLEIVEVLLKYGADVNAKDRNGLTPLYLAANNGHLEIVEDLLKYGADVNADDDNGTTPLHLAAIFGHLEIVEVLLKYGADVNAQDKFGKTAFDISIDNGNEDLAEILQKLN
For B1, the binding entry is “binds”.

B2: DARPin #54 (designed binder)
chain: MRGSHHHHHHGSDLGKKLLEAARAGQDDEVRILMANGADVNANDSSGLTPLHLAAFYGHLEIVEVLLKYGADVNADDDWGHTPLHLAAHYGHLEIVEVLLKHGADVNAIDTRGLTPLHLAAIAGHLEIVEVLLKYGADVNAQDKFGKTAFDISIDNGNEDLAEILQKLN
In the case of B2, the binding result was “binds”.

B3: DARPin #55 (designed binder)
chain: MRGSHHHHHHGSDLGKKLLEAARAGQDDEVRILMANGADVNASDDTGLTPLHLAANRGHLEIVEVLLKHGADVNANDFAGMTPLHLAANVGHLEIVEVLLKYGADVNAHDDYGLTPLHLAANWRHLEIVEVLLKNGADVNAQDKFGKTAFDISIDNGNEDLAEILQKLN
For B3, the binding result is listed as “binds”.

B4: DARPin #36 (designed binder)
chain: MRGSHHHHHHGSDLGKKLLEAARAGQDDEVRILMANGADVNANDDSGFTPLHLAAFYGHLELVEVLLKYGADVNATDRFGLTPLHLAAHYGHLEIVEVLLKHGDDVNAQDKFGKTAFDISIDNGNEDLAEILQKLN
As to B4, the binding entry is reported as “binds”.

B5: DARPin #38 (designed binder)
chain: MRGSHHHHHHGSDLGKKLLEAARAGQDDEVRILMANGADVNATDANGFTPLHLAAFYGHLEIVEVLLKYGADVNAYDNFGLTPLHLAASYGHLEIVEVLLKNGADVYAQDKFGKTAFDISIDNGNEDLAEILQKLN
Consider B5, for which the binding result is given as “binds”.

B6: DARPin #59 (designed binder)
chain: MRGSHHHHHHGSDLGKKLLEAARAGQDDEVRILMANGADVNADDSLGLTPLHLAAASGHLEIVEVLLKNGADVNAVDQNSFTPLYLAANNGHLEIVEVLLKNGADVNAFDWHGTTPLHLAAMFGHLEIVEVLLKNGADVNAQDKFGKTAFDISIDNGNEDLAEILQKLN
For the molecule B6, the binding entry was “binds”.

B7: DARPin #45 (designed binder)
chain: MRGSHHHHHHGSDLGKKLLEAARAGQDDEVRILMANGADVNAVDAWGDTPLHLAASIGHLEIVEVLLKNGADVNAADYYGDTPLHLAASAGHLEIVEVLLKYGADVNAQDDNGNTPLHLAANTGRLEIVEVLLKHGADVNAQDKFGKTAFDISIDNGNEDLAEILQKLN
With B7, the binding entry is given as “binds”.

B8: DARPin #37 (designed binder)
chain: MRGSHHHHHHGSDLGKKLLEAARAGQDDEVRILMANGADVNATDLTGFTPLHLAAYYGHLEIVEVLLKYGADVNADDRYGLTPLHLAANTGHLEIVEVLLKNGADVNASDSVGTTLLHLAAYIGHPEIVEVLLKYGADVNAQDKFGKTAFDISIDNGNEDLAEILQKLN
As for B8, the binding result is recorded as “binds”.

B9: DARPin #44 (designed binder)
chain: MRGSHHHHHHGSDLGKKLLEAARAGQDDEVRILMANGADVNTHDNFGDTPLHLAASIGHLEIVEVLLKHGADVNAFDSYGDTPLHLAASSGHLEIVEVLLKYGADVNALDYNGNTPLHLAANSGRLEIVEVLLKHGADVNAQDKFGKTAFDISIDNGNEDLAEILQKLN
Regarding B9, the binding entry is “binds”.

B10: DARPin #58 (designed binder)
chain: MRGSHHHHHHGSDLGKKLLEAARAGQDDEVRILMANGADVNAHDYVGLTPLHLAASIGHLEIVEVLLKYGADVNASDYNGFTPLYLAANNGHLEIVEVLLKNGADVNATDSFGYTPLHLAAHYGHLEIVEVLLKNGADVNAQDKFGKTAFDISIDNGNEDLAEILQKLN
On to B10, for which the binding entry is recorded as “binds”.

B11: DARPin #60 (designed binder)
chain: MRGSHHHHHHGSDLGMKLLEAARAGQDDEVRILMANGADVNAHDTWGLTPLHLAAFHGHQEIVEVLLKHGADVNAQDFYGKTPLHLAALRGHLEIVEVLLKYGADVNAQDQFGKTAFDISIDNGNEDLAEILQKLN
Turning to B11, the binding result is listed as “binds”.

B12: DARPin #46 (designed binder)
chain: MRGSHHHHHHGSDLGKKLLEAARAGQDDEVRILMANGADVNAIDTWGNTPLHLAADYGHLEIVEVLLKNGADVNALDWFGDTPLHLAASLGHLEIVEVLLKNGADVNAVDTYGNTPLHLAANTGRLEIVEVLLKYGADVNAQDKFGKTAFDISIDNGNEDLAEILQKLN
As to B12, the binding entry is given as “binds”.

B13: DARPin #53 (designed binder)
chain: MRGSHHHHHHGSDLGKKLLEAARAGQDDEVRILMANGADVNANDFLGLTPLHLAASTGHLEIVEVLLKYGADVNAIDAYGHTPLHLAANNGHLEIVEVLLKYGADVNAIDHFGYTPLHLAAMFGHLEIVEVLLKNGADVNAQDKFGKTAFDISIDNGNEDLAEILQKLN
For the molecule B13, the binding result is given as “binds”.

B14: DARPin #56 (designed binder)
chain: MRGSHHHHHHGSDLGKKLLEAARAGQDDEVRILMANGADVNANDFLGLTPLHLAASTGHLEIVEVLLKYGADVNAIDAYGHTPLHLAANNGHLEIVEVLLKYGADVNAIDHFGYTPLHLAAMFGHLEIVEVLLKNGADVNAQDKFGKTAFDISIDNGNEDLAEILQKLN
In the case of B14, the binding entry is reported as “binds”.

B15: DARPin #33 (designed binder)
chain: MRGSHHHHHHGSDLGKKLLEAARAGQDDEVRILMANGADVNAHDYSGFTPLHLAAYYGHLEIVEVLLKHGADVNAFDDWGHTPLHLAARYGHLEIVEVLLKYGADVNAEDTEGYTPLHLAAMDGHLEIVEVLLKNGADVNAQDKFGKTAFDISIDNGNEDLAEILQKLN
B15: the binding result was “binds”.

B16: DARPin #35 (designed binder)
chain: MRGSHHHHHHGSDLGKKLLEAARAGQDDEVRILMANGADVNASDMSGFTPLHLAAFYGHLEIVEVLLKHGADVNAEDYWGHTPLHLAARYGHLEIVEVLLKYGADVNAEDTEGYTPLHLAAMDGHLEIVEVLLKHGADVNAQDKFGKTAFDISIDNGNEDLAEILQKLN
For B16, the binding result is reported as “binds”.

B17: DARPin #34 (designed binder)
chain: MRGSHHHHHHGSDLGKKLLEAARAGQDDEVRILMANGADVNAIDYSGFTPLHLAAYYGHLEIVEVLLKHGADVNAFDDWGHTPLHLAARYGHLEIVEVLLKYGADVNAEDTEGYTPLHLAAMDGHLEIVEVLLKYGADVNAQDKFGKTAFDISIDNGNEDLAEILQKLN
On to B17, for which the binding result is recorded as “binds”.

B18: DARPin #42 (designed binder)
chain: MRGSHHHHHHGSDLGKKLLEAARAGQDDEVRILMANGADVNAKYEDGLTPLHLAAFYGHLEIVEVLLKHGADVNATDAWGHTPLHLAAHYGHLEIVEVLLKYGADVNAIDTLGYTPLHLAANFGHLEIVEVLLKNGADVNAQDKFGKTAFDISIDNGNEDLAEILQKLN
In the case of B18, the binding entry is reported as “binds”.

B19: DARPin #39 (designed binder)
chain: MRGSHHHHHHGSDLGKKLLEAARAGQDDEVRILMANGADVNAKYEDGLTPLHLAAFYGHLEIVEVLLKHGADVNATDAWGHTPLHLAASNGHLEIVEVLLKYGADVNASDTAGITPLHLAAHNGHLEIVEVVLKHGADVNAQDKFGKTAFDISIDNGNEDLAEILQKLN
For B19, the binding result is given as “binds”.

B20: DARPin #40 (designed binder)
chain: MRGSHHHHHHGSDLGKKLLEAARAGQDDEVRILMANGADVNAKYEDGLTPLHLAAFYGHLEIVEVLLKHGADVNATDAWGHTPLHLAAAYGHLEIVEVLLKNGADVNAHDNVGDTPLHLAAMLGHLEIVEVLLKNGADVNAQDKFGKTAFDISIDNGNEDLAEILQKLN
For the molecule B20, the binding result is recorded as “binds”.

B21: DARPin #41 (designed binder)
chain: MRGSHHHHHHGSDLGKKLLEAARAGQDDEVRILMANGADVNAKYEDGLTPLHLAAFYGHLEIVEVLLRHGADVNATDAWGHTPLHLAAYLGHLEIVEVLLKYGADVNAEDTEGYTPLHLAAMDGHLEIIEVLLKHGADVNAQDKFGKTAFDISIDNGNEDLAEILQKLN
As to B21, the binding entry is reported as “binds”.

B22: DARPin #48 (designed binder)
chain: MRGSHHHHHHGSDLGKKLLEAARAGQDDEVRILMANGADVNAKDRFGDTPLHLAADIGHLKIVEVLLKHGADVNAEDWFGNTPLHLAASMGHLEIVEVLLKYGADVNAMDDYGNTPLHLAANTGHLEIVEVLLKHGADVNAQDKFGKTAFDISIDNGNEDLAEILQKLN
On to B22, for which the binding entry is given as “binds”.

B23: DARPin #47 (designed binder)
chain: MRGSHHHHHHGSDLGKKLLEAARAGQDDEVRILMANGADVNAQDRWGDTPLHLAASAGHLKIVEVLLKYGADVNADDVFGDTPLHLAASLGHLEIVEVLLKYGADVNADDYAGNTPLHLAANTGHLEIVEVLLKHGADVNAQDKFGKTAFDISIDNGNEDLAEILQKLN
Consider B23, for which the binding entry is given as “binds”.

B24: DARPin #49 (designed binder)
chain: MRGSHHHHHHGSDLGKKLLEAARAGQDDEVRILMANGADVNAQDRWGDTPLHLAASAGHLKIVEVLLKYGADVNADDVFGDTPLHLAASLGHLEIVEVLLKYGADVNADDYAGNTPLHLAANTGHLEIVEVLLKYGADVNAQDKFGKTAFDISIDNGNEDLAEILQKLN
With B24, the binding entry is on record as “binds”.

B25: DARPin #50 (designed binder)
chain: MRGSHHHHHHGSDLGKKLLEAARAGQDDEVRILMANGADVNAKDRYGDTPLHLAADIGHLEIVEVLLKAGADVNAEDYFGNTPLHLAASYGHLEIVEVLLKAGADVNAKDDYGNTPLHLAANTGHLEIVEVLLKAGADVNAQDKSGKTPADLAADAGHEDIAEVLQKLN
Take B25: the binding entry is on record as “binds”.

B26: DARPin #52 (designed binder)
chain: MRGSHHHHHHGSDLGKKLLEAARAGQDDEVRILLKAGADVNAKDRYGDTPLHLAADAGHLKIVEVLLKAGADVNAEDYFGNTPLHLAASAGHLEIVEVLLKAGADVNAKDDAGNTPLHLAANTGHLKIVEVLLKAGADVNAQDKSGKTPADLAADAGHEDIAEVLQKLN
With B26, the binding result is on record as “binds”.
